Laboratory results reported in patent US20200297796A1.
Results are given in words; binding and its absence hold for the method and conditions named. Binding seen in cells or lysates may run through a third protein. Some entries that bind do so weakly or less than the wild type. For some assays here: Tags and fused reporters may be left off the sequences shown.

By UniProt entry, the sequences of proteins in these tests, tags left out. Where a name states a change or a piece, a line headed by the entry shows the natural chain unless it says otherwise.
UniProt Q13098: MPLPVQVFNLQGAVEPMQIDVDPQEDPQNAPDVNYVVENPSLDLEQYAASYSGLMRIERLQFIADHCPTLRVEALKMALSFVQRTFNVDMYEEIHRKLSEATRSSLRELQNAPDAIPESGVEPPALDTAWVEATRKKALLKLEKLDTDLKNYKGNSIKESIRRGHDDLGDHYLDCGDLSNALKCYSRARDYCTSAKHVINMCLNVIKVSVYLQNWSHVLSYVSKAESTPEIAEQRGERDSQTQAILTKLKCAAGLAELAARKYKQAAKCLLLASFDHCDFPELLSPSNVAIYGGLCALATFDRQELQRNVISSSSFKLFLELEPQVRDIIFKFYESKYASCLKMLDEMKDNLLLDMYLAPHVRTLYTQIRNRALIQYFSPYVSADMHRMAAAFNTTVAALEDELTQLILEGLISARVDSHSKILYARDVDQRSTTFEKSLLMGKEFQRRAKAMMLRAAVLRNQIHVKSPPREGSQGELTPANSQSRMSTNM
UniProt Q92466: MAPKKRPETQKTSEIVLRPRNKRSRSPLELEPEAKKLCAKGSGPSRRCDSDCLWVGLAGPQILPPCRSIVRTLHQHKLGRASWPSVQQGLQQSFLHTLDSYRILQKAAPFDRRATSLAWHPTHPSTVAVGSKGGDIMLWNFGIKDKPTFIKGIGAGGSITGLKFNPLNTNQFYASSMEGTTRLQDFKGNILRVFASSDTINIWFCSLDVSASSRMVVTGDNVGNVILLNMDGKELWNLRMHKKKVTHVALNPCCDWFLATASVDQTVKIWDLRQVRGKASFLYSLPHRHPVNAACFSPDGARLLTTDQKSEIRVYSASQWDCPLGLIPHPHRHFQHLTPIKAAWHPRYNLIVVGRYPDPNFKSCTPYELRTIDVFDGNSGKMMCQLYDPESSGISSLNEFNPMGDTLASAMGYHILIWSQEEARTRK

B1: FBXL15-FLAG (protein, UniProt Q9H469 1-300, looked up, not shown: small tags and cut ends)
chain: MEPPMEPSGGEQEPGAVRFLDLPWEDVLLPHVLNRVPLRQLLRLQRVSRAFRSLVQLHLAGLRRFDAAQVGPQIPRAALARLLRDAEGLQELALAPCHEWLSDEDLVPVLARNPQLRSVALGGCGQLSRRALGALAEGCPRLQRLSLAHCDWVDGLALRGLADRCPALEELDLTACRQLKDEAIVYLAQRRGAGLRSLSLAVNANVGDAAVQELARNCPELHHLDLTGCLRVGSDGVRTLAEYCPVLRSLRVRHCHHVAESSLSRLRKRGVDIDVEPPLHQALVLLQDMAGFAPFVNLQV

Assays:
[1] = target: COP9 signalosome (CSN) complex of WT cells (human) (UniProt Q13098); assay: reciprocal co-immunoprecipitation, anti-CSN3 antibody, Western blot
[2] = target: COP9 signalosome (CSN) complex of WT cells (human) (UniProt Q13098); assay: reciprocal co-immunoprecipitation, anti-FLAG resin or anti-CSN3 antibody, Western blot

Row | Molecule | binding [1] | binding [2]
1 | DDB2 (from UniProt Q92466 1-427) | binds | 
2 | B1 |  | binds
